These are yes or no findings as the source states them, for the method shown. Some results given as binding are weak or reduced against the parent protein; the word gives no strength.
T1: Brn1 (S. cerevisiae) (UniProt P38170)
T1 sequence: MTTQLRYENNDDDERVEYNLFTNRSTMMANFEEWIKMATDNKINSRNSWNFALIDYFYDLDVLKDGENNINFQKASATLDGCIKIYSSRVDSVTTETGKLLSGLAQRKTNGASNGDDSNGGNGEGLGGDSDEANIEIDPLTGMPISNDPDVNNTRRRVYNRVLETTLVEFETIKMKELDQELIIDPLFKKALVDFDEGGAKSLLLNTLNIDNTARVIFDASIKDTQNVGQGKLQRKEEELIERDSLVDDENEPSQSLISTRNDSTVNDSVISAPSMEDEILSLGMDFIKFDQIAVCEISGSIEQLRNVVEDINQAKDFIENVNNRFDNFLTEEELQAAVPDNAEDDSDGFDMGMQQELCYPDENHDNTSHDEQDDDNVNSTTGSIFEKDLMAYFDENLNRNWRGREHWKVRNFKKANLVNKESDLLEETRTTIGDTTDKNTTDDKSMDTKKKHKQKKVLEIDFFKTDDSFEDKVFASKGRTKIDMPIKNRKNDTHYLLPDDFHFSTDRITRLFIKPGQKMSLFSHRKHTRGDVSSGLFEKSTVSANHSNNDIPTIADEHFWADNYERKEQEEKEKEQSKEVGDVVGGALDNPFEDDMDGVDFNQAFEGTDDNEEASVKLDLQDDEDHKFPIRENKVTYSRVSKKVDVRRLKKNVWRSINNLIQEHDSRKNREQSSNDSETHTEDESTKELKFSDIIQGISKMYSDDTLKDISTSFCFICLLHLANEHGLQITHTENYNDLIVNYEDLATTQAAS


Biological target: T1, Brn1 (S. cerevisiae)
Experiment: tandem affinity co-purification

binding | Binder
binds | Smc4 (protein, UniProt Q12267 1-1418) MSDSPLSKRQKRKSAQEPELSLDQGDAEEDSQVENRVNLSENTPEPDLPALEASYSKSYTPRKLVLSSGENRYAFSQPTNSTTTSLHVPNLQPPKTSSRGRDHKSYSQSPPRSPGRSPTRRLELLQLSPVKNSRVELQKIYDRHQSSSKQQSRLFINELVLENFKSYAGKQVVGPFHTSFSAVVGPNGSGKSNVIDSMLFVFGFRANKMRQDRLSDLIHKSEAFPSLQSCSVAVHFQYVIDESSGTSRIDEEKPGLIITRKAFKNNSSKYYINEKESSYTEVTKLLKNEGIDLDHKRFLILQGEVENIAQMKPKAEKESDDGLLEYLEDIIGTANYKPLIEERMGQIENLNEVCLEKENRFEIVDREKNSLESGKETALEFLEKEKQLTLLRSKLFQFKLLQSNSKLASTLEKISSSNKDLEDEKMKFQESLKKVDEIKAQRKEIKDRISSCSSKEKTLVLERRELEGTRVSLEERTKNLVSKMEKAEKTLKSTKHSISEAENMLEELRGQQTEHETEIKDLTQLLEKERSILDDIKLSLKDKTKNISAEIIRHEKELEPWDLQLQEKESQIQLAESELSLLEETQAKLKKNVETLEEKILAKKTHKQELQDLILDLKKKLNSLKDERSQGEKNFTSAHLKLKEMQKVLNAHRQRAMEARSSLSKAQNKSKVLTALSRLQKSGRINGFHGRLGDLGVIDDSFDVAISTACPRLDDVVVDTVECAQHCIDYLRKNKLGYARFILLDRLRQFNLQPISTPENVPRLFDLVKPKNPKFSNAFYSVLRDTLVAQNLKQANNVAYGKKRFRVVTVDGKLIDISGTMSGGGNHVAKGLMKLGTNQSDKVDDYTPEEVDKIERELSERENNFRVASDTVHEMEEELKKLRDHEPDLESQISKAEMEADSLASELTLAEQQVKEAEMAYVKAVSDKAQLNVVMKNLERLRGEYNDLQSETKTKKEKIKGLQDEIMKIGGIKLQMQNSKVESVCQKLDILVAKLKKVKSASKKSGGDVVKFQKLLQNSERDVELSSDELKVIEEQLKHTKLALAENDTNMNETLNLKVELKEQSEQLKEQMEDMEESINEFKSIEIEMKNKLEKLNSLLTYIKSEITQQEKGLNELSIRDVTHTLGMLDDNKMDSVKEDVKNNQELDQEYRSCETQDESEIKDAETSCDNYHPMNIDETSDEVSRGIPRLSEDELRELDVELIESKINELSYYVEETNVDIGVLEEYARRLAEFKRRKLDLNNAVQKRDEVKEQLGILKKKRFDEFMAGFNIISMTLKEMYQMITMGGNAELELVDSLDPFSEGVTFSVMPPKKSWRNITNLSGGEKTLSSLALVFALHKYKPTPLYVMDEIDAALDFRNVSIVANYIKERTKNAQFIVISLRNNMFELAQQLVGVYKRDNRTKSTTIKNIDILNRT
binds | Ycg1 (protein, UniProt Q06680 1-1035) MQDPDGIDINTKIFNSVAEVFQKAQGSYAGHRKHIAVLKKIQSKAVEQGYEDAFNFWFDKLVTKILPLKKNEIIGDRIVKLVAAFIASLERELILAKKQNYKLTNDEEGIFSRFVDQFIRHVLRGVESPDKNVRFRVLQLLAVIMDNIGEIDESLFNLLILSLNKRIYDREPTVRIQAVFCLTKFQDEEQTEHLTELSDNEENFEATRTLVASIQNDPSAEVRRAAMLNLINDNNTRPYILERARDVNIVNRRLVYSRILKSMGRKCFDDIEPHIFDQLIEWGLEDRELSVRNACKRLIAHDWLNALDGDLIELLEKLDVSRSSVCVKAIEALFQSRPDILSKIKFPESIWKDFTVEIAFLFRAIYLYCLDNNITEMLEENFPEASKLSEHLNHYILLRYHHNDISNDSQSHFDYNTLEFIIEQLSIAAERYDYSDEVGRRSMLTVVRNMLALTTLSEPLIKIGIRVMKSLSINEKDFVTMAIEIINDIRDDDIEKQEQEEKIKSKKINRRNETSVDEEDENGTHNDEVNEDEEDDNISSFHSAVENLVQGNGNVSESDIINNLPPEKEASSATIVLCLTRSSYMLELVNTPLTENILIASLMDTLITPAVRNTAPNIRELGVKNLGLCCLLDVKLAIDNMYILGMCVSKGNASLKYIALQVIVDIFSVHGNTVVDGEGKVDSISLHKIFYKVLKNNGLPECQVIAAEGLCKLFLADVFTDDDLFETLVLSYFSPINSSNEALVQAFAFCIPVYCFSHPAHQQRMSRTAADILLRLCVLWDDLQSSVIPEVDREAMLKPNIIFQQLLFWTDPRNLVNQTGSTKKDTVQLTFLIDVLKIYAQIEKKEIKKMIITNINAIFLSSEQDYSTLKELLEYSDDIAENDNLDNVSKNALDKLRNNLNSLIEEINERSETQTKDENNTANDQYSSILGNSFNKSSNDTIEHAADITDGNNTELTKTTVNISAVDNTTEQSNSRKRTRSEAEQIDTSKNLENMSIQDTSTVAKNVSFVLPDEKSDAMSIDEEDKDSESFSEVC
binds | Smc2 (natural protein, S. cerevisiae, UniProt P38989 1-1170, looked up) MKVEELIIDGFKSYATRTVITDWDPQFNAITGLNGSGKSNILDAICFVLGIASMSTVRASSLQDLIYKRGQAGVTKASVTIVFDNTDKSNSPIGFTNSPQISVTRQVVLGGTSKYLINGHRAPQQSVLQLFQSVQLNINNPNFLIMQGKITKVLNMKPSEILSLIEEAAGTKMFEDRREKAERTMSKKETKLQENRTLLTEEIEPKLEKLRNEKRMFLEFQSTQTDLEKTERIVVSYEYYNIKHKHTSIRETLENGETRMKMLNEFVKKTSEEIDSLNEDVEEIKLQKEKELHKEGTISKLENKENGLLNEISRLKTSLSIKVENLNDTTEKSKALESEIASSSAKLIEKKSAYANTEKDYKMVQEQLSKQRDLYKRKEELVSTLTTGISSTGAADGGYNAQLAKAKTELNEVSLAIKKSSMKMELLKKELLTIEPKLKEATKDNELNVKHVKQCQETCDKLRARLVEYGFDPSRIKDLKQREDKLKSHYYQTCKNSEYLKRRVTNLEFNYTKPYPNFEASFVHGVVGQLFQIDNDNIRYATALQTCAGGRLFNVVVQDSQTATQLLERGRLRKRVTIIPLDKIYTRPISSQVLDLAKKIAPGKVELAINLIRFDESITKAMEFIFGNSLICEDPETAKKITFHPKIRARSITLQGDVYDPEGTLSGGSRNTSESLLVDIQKYNQIQKQIETIQADLNHVTEELQTQYATSQKTKTIQSDLNLSLHKLDLAKRNLDANPSSQIIARNEEILRDIGECENEIKTKQMSLKKCQEEVSTIEKDMKEYDSDKGSKLNELKKELKLLAKELEEQESESERKYDLFQNLELETEQLSSELDSNKTLLHNHLKSIESLKLENSDLEGKIRGVEDDLVTVQTELNEEKKRLMDIDDELNELETLIKKKQDEKKSSELELQKLVHDLNKYKSNTNNMEKIIEDLRQKHEFLEDFDLVRNIVKQNEGIDLDTYRERSKQLNEKFQELRKKVNPNIMNMIENVEKKEAALKTMIKTIEKDKMKIQETISKLNEYKRETLVKTWEKVTLDFGNIFADLLPNSFAKLVPCEGKDVTQGLEVKVKLGNIWKESLIELSGGQRSLIALSLIMALLQFRPAPMYILDEVDAALDLSHTQNIGHLIKTRFKGSQFIVVSLKEGMFANANRVFRTRFQDGTSVVSIM

— article doi:10.1101/2019.12.13.867358 (bioRxiv, 2019)
